For some assays here: A negative result means that nothing was seen under these conditions. At least one verdict was read from the data and is not stated in words by the source. Where a protein sequence is shown, tags need not be part of it. For some assays here: The exact form of at least one protein or probe is not confirmed.

One series deals with T1, DEAF1-FLAG (human) (UniProt O75398).
T1 sequence (looked up): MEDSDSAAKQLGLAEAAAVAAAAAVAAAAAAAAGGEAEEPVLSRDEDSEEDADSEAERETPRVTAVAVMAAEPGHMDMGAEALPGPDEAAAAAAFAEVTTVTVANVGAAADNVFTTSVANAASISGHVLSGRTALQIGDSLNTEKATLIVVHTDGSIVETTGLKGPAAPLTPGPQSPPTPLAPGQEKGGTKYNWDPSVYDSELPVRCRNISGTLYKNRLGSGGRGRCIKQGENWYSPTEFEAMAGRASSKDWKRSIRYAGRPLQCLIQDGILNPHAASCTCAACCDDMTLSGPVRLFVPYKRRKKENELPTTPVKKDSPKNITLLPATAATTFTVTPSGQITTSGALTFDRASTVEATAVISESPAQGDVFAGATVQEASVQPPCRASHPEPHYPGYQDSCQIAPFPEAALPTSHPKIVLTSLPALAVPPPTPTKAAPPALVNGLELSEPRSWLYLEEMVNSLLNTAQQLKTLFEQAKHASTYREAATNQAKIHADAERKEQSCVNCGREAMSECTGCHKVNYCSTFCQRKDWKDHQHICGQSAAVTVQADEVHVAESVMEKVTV
In words: EMSA. To be noted: with Ku70/FLAG-Ku80 present, no apparent effect, no supershift; EMSA: 100 mM KCl, 50 mM Tris pH 7.5, 1 mM DTT, 25 °C, 30 min protein preincubation then 30 min with 32P probe; 4% native gel; recombinant protein; residues 1-565; label: 32P in EMSA.

The target of a further series is T2, DEAF1 (167-565) (human) (UniProt O75398).
T2 sequence (looked up): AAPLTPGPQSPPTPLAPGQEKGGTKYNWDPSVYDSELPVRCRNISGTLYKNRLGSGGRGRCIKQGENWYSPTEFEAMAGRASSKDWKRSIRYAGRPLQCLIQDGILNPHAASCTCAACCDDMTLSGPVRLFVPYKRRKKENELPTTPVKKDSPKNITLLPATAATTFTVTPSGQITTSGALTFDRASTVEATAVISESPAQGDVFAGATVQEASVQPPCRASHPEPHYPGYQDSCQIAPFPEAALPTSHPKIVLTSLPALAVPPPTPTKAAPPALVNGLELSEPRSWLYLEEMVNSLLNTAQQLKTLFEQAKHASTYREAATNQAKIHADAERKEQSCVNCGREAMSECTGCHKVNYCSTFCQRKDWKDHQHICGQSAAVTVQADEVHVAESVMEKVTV
In words: competition with a labelled probe. To be noted: indirect: modest decrease of pull-down by GST-Ku70(550-609); EMSA: 100 mM KCl, 50 mM Tris pH 7.5, 1 mM DTT, 25 °C, 30 min protein preincubation then 30 min with 32P probe; 4% native gel; protein translated in vitro; residues 167-565; label: 32P in EMSA. (A gel shift assay detects complexes by their altered migration in electrophoresis.)

As for “TTTTGCTTCCCACTTTTG (double strand) [Mut 2]”, the binding result with DEAF1-FLAG (human) is recorded as “no binding”. As for “TTCGGCTTCCCACTTCGG (double strand) [N52-69]”, the binding result with DEAF1 (167-565) (human) was “binds”.

Source of the values: publication PMC3307728.
